The source of these data is paper PMC12040169 (PLOS Biology, 2025).

Each structure is given as a SMILES string. This is one part of the list.

The experiment has as its system T1, CTL2-GFP (C. trachomatis L2/434/Bu, GFP-expressing).
T1 construct: L2/434/Bu, GFP-expressing
Also on record: species or system HeLa; Intracellular C. trachomatis growth in HeLa cells, bulk GFP fluorescence relative to DMSO. To be noted: bulk GFP, single well; 28.5 h, 10 µM; inhibitor.
For `Cc1nc(-c2cccnc2)[nH]c(=O)c1CC(=O)N(C)C1CCCCC1` [CBK306310], the “% of control remaining” value was 94.3792%.

On to `Cc1ccc(-c2nnc(SCc3cccc4nsnc34)n2C)cc1` [CBK269706], for which the “% of control remaining” value was determined as 110.354%.

Turning to `O=c1[nH]c(Nc2ccccc2)nc2nccc(-c3ccccc3)c12` [CBK288072], the “% of control remaining” value amounted to 117.511%.

In the case of `COc1ccc(CCN2CCN(c3nccnc3OCC3COc4ccccc4O3)CC2)cc1OC` (stereo not drawn) [CBK082808T], the “% of control remaining” value was 99.4573%.

Take `COc1cncc(-c2cncc(NCCCN3CCOCC3)n2)c1` [CBK037902]: the “% of control remaining” value was 118.527%.

In the case of `CC(C)NC(=O)[C@@H](C)C1CC[C@@]2(C)CC[C@H](NC(=O)c3ccncc3)[C@@H](C)[C@@H]2[C@H]1O` (stereo partly drawn) [CBK289449], the “% of control remaining” value turned out to be 135.256%.

Regarding `CS(=O)(=O)c1ccc(Cn2ccnc(N3CCN(C(=O)C4CCCCC4)CC3)c2=O)cc1` [CBK153771], the “% of control remaining” value is listed as 149.908%.

Consider `Cc1ccc(C2(O)CCN(Cc3cnn(C)c3C)CC2)cc1` [CBK282736], for which the “% of control remaining” value is recorded as 162.904%.

`CCn1c(CNC(=O)c2cn3cc(C)ccc3n2)nc2ccccc21` [CBK281395]: the “% of control remaining” value was determined as 99.8098%.

As to `O=C(NCCNCCNC(=O)C1(c2ccccc2)CCCC1)C1(c2ccccc2)CCCC1` [CBK017670], the “% of control remaining” value is recorded as 14.7357%.

Take `CC(C)Nc1nc2cc(Cl)c(Cl)cc2nc1Sc1nc[nH]n1` [CBK115261]: the “% of control remaining” value is on record as 89.2832%.

Turning to `Cc1cccc(NC(=O)C(CC(=O)O)NCc2ccccc2)c1` (stereo not drawn) [CBK266821], the “% of control remaining” value came to 158.409%.

For `Cc1cc(CN2CCC(O)(c3cccnc3F)CC2)oc1C` [CBK282124], the “% of control remaining” value was 163.061%.

Turning to `S=C(NCC1CCN(C(=S)Nc2cccc3ccccc23)CC1)Nc1cccc2ccccc12` [CBK016070], the “% of control remaining” value is on record as 84.5048%.

Take `O=C(O)c1cccc(NS(=O)(=O)c2ccc(S(=O)(=O)N3CCCCC3)cc2)c1` [CBK295295]: the “% of control remaining” value was 134.106%.

For the compound `Nc1nnc(SCC(=O)N2CCN(C(c3ccccc3)c3ccccc3)CC2)n1-c1ccccc1` [CBK266696], the “% of control remaining” value turned out to be 94.4055%.

Turning to `N#CCCN(C(=O)NCc1cccc2ccccc12)C1CCCCC1` [CBK156353], the “% of control remaining” value is 103.819%.

For the compound `COc1cc(NC(=O)CC2(C(=O)O)CCCCC2)ccc1N1CCCC1=O` [CBK296761], the “% of control remaining” value amounted to 126.263%.

In the case of `COc1cccc(OCCO)c1` [CBK000514], the “% of control remaining” value came to 133.328%.

On to `CCCc1ccc(S(=O)(=O)Nc2c(C(=O)N(CC)CC)[nH]c3ccccc23)cc1` [CBK050111], for which the “% of control remaining” value is 114.024%.

Consider `O=C(CSc1ccc2ccccc2n1)Nc1ccnc2ccccc12` [CBK176848], for which the “% of control remaining” value came out at 88.3559%.

Consider `O=C(O)CNS(=O)(=O)c1cc(Cl)c(Cl)cc1Cl` [CBK266136], for which the “% of control remaining” value amounted to 139.733%.

As for `COc1cc(C(=O)N2CCN(Cc3c[nH]c4ccccc34)CC2)cc(OC)c1OC` [CBK301212G], the “% of control remaining” value is 166.688%.

Turning to `CN1CCN(CCCN2C(=O)CSC2c2cccc([N+](=O)[O-])c2)CC1` (stereo not drawn) [CBK278237C], the “% of control remaining” value is 98.166%.

On to `CCC(C)NC1=NC(=O)C(CC(=O)Nc2ccccc2Cl)S1` (stereo not drawn) [CBK059133T], for which the “% of control remaining” value is recorded as 112.824%.

In the case of `Cc1ccc(C(=O)C2=C(O)C(=O)N(CCCn3ccnc3)C2c2ccncc2)cc1` (stereo not drawn) [CBK264476], the “% of control remaining” value turned out to be 134.523%.

As for `c1ccc2cc(-c3cn4ccnc4c(NC4CCOCC4)n3)ccc2c1` [CBK066290], the “% of control remaining” value came to 174.504%.

Regarding `Cc1cc(=O)n(CC(=O)NC(C)Cc2ccccn2)c2ccccc12` (stereo not drawn) [CBK281420], the “% of control remaining” value is 119.944%.

As to `Cc1cc(C)n(C2CN(CC(=O)NCc3ccccn3)C2)n1` [CBK306238], the “% of control remaining” value was found to be 130.464%.

Regarding `CC(C)(O)c1cc(CC2(NCC3CCCCC3)COC2)no1` [CBK289656], the “% of control remaining” value stood at 134.727%.

For the compound `CC(=O)NCCSc1nccnc1N1CCCC1` [CBK105619], the “% of control remaining” value was found to be 108.587%.

In the case of `COc1cc(NC(=O)C2CCCN2)ccc1-n1cccc1` (stereo not drawn) [CBK282500], the “% of control remaining” value was determined as 140.52%.

Consider `CN1CCCc2cc(-c3cncn3CC(=O)NC(C)(C)C)ccc21` [CBK281700], for which the “% of control remaining” value turned out to be 113.616%.

As to `COc1ccc2[nH]c3c(c2c1)CCOC31CCN(C(=O)CC(C)CC(=O)O)CC1` (stereo not drawn) [CBK047197], the “% of control remaining” value is 99.1285%.

As for `O=C(Nc1ccc2ncsc2c1)C1COc2ccccc2O1` (stereo not drawn) [CBK287750], the “% of control remaining” value was 102.15%.

Consider `COC(=O)c1sc(-c2ccsc2)cc1N` [CBK006256], for which the “% of control remaining” value came to 146.994%.

Turning to `Cc1ccc([N+](=O)[O-])cc1NC(=O)CSc1nnc(-c2ccco2)o1` [CBK268378], the “% of control remaining” value was 121.173%.

For `CCOC(=O)c1cnn(C)c1-c1ccc(F)cc1OC` [CBK149233], the “% of control remaining” value is 99.4871%.

Take `Cc1cnccc1CN1CCC[C@@H]2CN(C(=O)CC(C)C)C[C@@H]21` [CBK285289]: the “% of control remaining” value is 86.2151%.

For the compound `COCCCNCCSc1ccc(Cl)cc1` [CBK265093], the “% of control remaining” value was 112.041%.

With `Cc1ccn2c(C3CCN(CCc4ccccc4)CC3)nc(-c3ccccc3)c2c1` [CBK035490], the “% of control remaining” value worked out at 142.492%.

Consider `Ic1cnn(Cc2nc(-c3ccc4c(c3)OCO4)no2)c1` [CBK270050], for which the “% of control remaining” value was determined as 73.707%.

As for `Fc1cccc(Sc2nnnn2-c2ccccc2)c1` [CBK002906], the “% of control remaining” value was found to be 102.761%.

For `O=S(=O)(Nc1cccc2[nH]ccc12)c1sc(Cl)cc1Br` [CBK153552], the “% of control remaining” value is recorded as 125.242%.

For the compound `O=C(Nc1ccc(Cl)c(Cl)c1)c1cnc2n(c1=O)CCS2` [CBK287381], the “% of control remaining” value was 124.333%.

For the compound `O=C(C1CCCCC1)N1CCC(n2nc(C3CC3)ccc2=O)CC1` [CBK284240], the “% of control remaining” value was determined as 108.667%.

Consider `CC(C)COC(=O)N1CCN(C2CCc3cc(-c4ccc([S+](C)[O-])cc4)ccc3C2)CC1` (stereo not drawn) [CBK173425], for which the “% of control remaining” value amounted to 123.249%.

Consider `CC(=O)Nc1cccc(CN2CCCC2CC(O)c2ccccc2)c1` (stereo not drawn) [CBK305136], for which the “% of control remaining” value was 120.64%.

Consider `O=C(O)/C=C/C(=O)N(Cc1ccccn1)Cc1ccco1` [CBK286660], for which the “% of control remaining” value came out at 133.734%.

`Cc1cnc(CNC(=O)c2ccc(-c3ccoc3)nc2)cn1` [CBK156267]: the “% of control remaining” value is given as 162.479%.

Consider `O=C(CSc1nnc2ccc(-c3ccccc3)nn12)N1CCCCC1` [CBK287678], for which the “% of control remaining” value worked out at 167.847%.
